# From patent US6365161
# Protein sequences, listed by entry. Tags and fused reporters are not part of them. Lines headed by an entry give the natural chain unless they say otherwise; changes in a name come on top. Residues count along the entry.
# UniProt P06731, residues 35-685: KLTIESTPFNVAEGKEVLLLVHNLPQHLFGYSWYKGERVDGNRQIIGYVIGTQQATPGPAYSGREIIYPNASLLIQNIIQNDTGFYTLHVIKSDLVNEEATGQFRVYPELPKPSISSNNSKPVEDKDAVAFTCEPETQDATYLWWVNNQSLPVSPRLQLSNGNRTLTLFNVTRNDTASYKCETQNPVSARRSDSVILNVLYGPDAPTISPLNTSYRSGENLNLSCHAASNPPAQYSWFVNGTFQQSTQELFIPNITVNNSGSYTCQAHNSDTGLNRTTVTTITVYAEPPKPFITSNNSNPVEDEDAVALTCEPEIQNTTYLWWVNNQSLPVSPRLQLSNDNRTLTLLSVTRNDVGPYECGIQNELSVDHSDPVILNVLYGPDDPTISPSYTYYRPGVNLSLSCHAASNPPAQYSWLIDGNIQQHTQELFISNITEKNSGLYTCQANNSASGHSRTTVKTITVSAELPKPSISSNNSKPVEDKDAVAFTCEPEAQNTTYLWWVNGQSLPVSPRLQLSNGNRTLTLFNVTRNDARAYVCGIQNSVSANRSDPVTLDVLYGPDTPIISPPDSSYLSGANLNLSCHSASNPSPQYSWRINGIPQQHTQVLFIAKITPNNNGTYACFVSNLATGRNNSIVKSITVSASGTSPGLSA
# UniProt P12314: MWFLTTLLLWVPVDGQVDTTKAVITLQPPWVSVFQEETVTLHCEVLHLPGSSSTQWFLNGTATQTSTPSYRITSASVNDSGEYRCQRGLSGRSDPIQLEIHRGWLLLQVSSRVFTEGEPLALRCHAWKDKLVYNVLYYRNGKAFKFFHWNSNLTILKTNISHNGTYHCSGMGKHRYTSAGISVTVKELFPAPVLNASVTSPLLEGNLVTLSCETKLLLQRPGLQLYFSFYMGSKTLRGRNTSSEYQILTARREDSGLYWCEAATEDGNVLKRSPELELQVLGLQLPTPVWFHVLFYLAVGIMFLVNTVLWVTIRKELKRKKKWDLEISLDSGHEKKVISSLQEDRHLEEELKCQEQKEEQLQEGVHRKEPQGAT
# UniProt P01871: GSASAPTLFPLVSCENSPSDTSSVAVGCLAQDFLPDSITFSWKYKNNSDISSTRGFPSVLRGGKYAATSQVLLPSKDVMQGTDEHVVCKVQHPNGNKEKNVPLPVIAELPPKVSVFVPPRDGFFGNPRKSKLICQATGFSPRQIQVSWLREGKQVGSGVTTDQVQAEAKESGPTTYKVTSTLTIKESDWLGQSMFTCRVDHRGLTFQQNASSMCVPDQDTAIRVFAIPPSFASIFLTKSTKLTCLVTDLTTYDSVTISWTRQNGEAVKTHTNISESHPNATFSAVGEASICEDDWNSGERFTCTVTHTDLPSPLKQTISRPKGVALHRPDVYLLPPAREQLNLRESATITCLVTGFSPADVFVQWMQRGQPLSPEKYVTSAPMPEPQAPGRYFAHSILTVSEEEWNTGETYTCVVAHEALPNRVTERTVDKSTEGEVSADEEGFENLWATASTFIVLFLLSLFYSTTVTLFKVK
# No constants are given. Whether binding was seen depends on the method and setting. Some results given as binding are weak or reduced against the parent protein; the word gives no strength.
# B1: bispecific single chain molecule H22-anti-CEA encoded by construct 321 (bispecific antibody)
# chain: DIQLVESGGGVVQPGRSLRLSCSSSGFIFSDNYMYWVRQAPGKGLEWVATISDGGSYTYYPDSVKGRFTISRDNSKNTLFLQMDSLRPEDTGVYFCARGYYRYEGAMDYWGQGTPVTVSSGGGGSGGGGSGGGGSDIQLTQSPSSLSASVGDRVTITCKSSQSVLYSSNQKNYLAWYQQKPGKAPKLLIYWASTRESGVPSRFSGSGSGTDFTFTISSLQPEDIATYYCHQYLSSWTFGQGTKVEIKSSCSSGGGGSDIKLQQSGAELVRSGTSVKLSCTASGFNIKDSYMHWLRQGPEQGLEWIGWIDPENGDTEYAPKFQGKATFTTDTSSNTAYLQLSSLTSEDTAVYYCNEGTPTGPYYFDYWGQGTTVTVSSGGGGSGGGGSGGGGSENVLTQSPAIMSASPGEKVTITCSASSSVSYMHWFQQKPGTSPKLWIYSTSNLASGVPARFSGSGSGTSYSLTISRMEAEDAATYYCQQRSSYPLTFGAGTKLELKRAAGSSGGGGSDIAAAEQKLISEEDLNGAAHHHHHH
# Assays:
# [1] = biological target: carcinoembryonic antigen (CEA) (UniProt P06731); experiment: bispecific ELISA, CEA-coated plates, soluble FcγRI/IgM-µ, AP anti-human IgM
# [2] = biological target: soluble fusion protein consisting of the extracellular domain of human FcγRI and human IgM heavy chain (sFcγRI-µ) (human) (UniProt P12314+P01871); experiment: as above
binder,measurement,setting,value
B1,binding,[1],binds
same,binding,[2],binds
